## Library screen at single concentrations

Chains of the proteins cited; added tags and fusions are not shown. Residues count along the entry.
UniProt A4I591, 1-473: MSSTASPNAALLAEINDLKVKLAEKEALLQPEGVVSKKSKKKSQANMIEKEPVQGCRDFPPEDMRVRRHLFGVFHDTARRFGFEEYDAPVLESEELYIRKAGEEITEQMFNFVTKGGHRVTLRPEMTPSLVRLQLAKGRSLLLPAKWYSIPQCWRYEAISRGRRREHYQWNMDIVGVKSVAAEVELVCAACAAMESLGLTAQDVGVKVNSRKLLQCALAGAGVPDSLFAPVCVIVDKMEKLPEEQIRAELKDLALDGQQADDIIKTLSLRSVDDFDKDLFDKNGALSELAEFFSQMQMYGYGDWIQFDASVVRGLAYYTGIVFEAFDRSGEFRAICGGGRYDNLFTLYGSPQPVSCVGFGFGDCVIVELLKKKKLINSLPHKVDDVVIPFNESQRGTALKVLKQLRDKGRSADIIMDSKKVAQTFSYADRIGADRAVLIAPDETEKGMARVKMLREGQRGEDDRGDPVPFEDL

Values are the deposited “Percent Effect”, in %.
The controls that fix the scale are not given in the record; negative values are as filed.
The compounds are a random part of those screened.
A dash means the value is not listed here; it may have been measured.

A: 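Assay of Toxoplasma gondii numbers, read through their beta-galactosidase reporter with a colour substrate. Compounds at 10 µM. Higher reads as fewer parasites (inferred from which compounds were picked for retests). Of about 67,000 compounds tested this way, about 260 (0.38%) reached 50% or more in at least one test.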
B: 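Enzyme assay of histidyl-tRNA synthetase; the read-out is not stated. Target: Histidine-tRNA ligase, Leishmania infantum (UniProt A4I591). Concentration: 30 µM. Direction is inferred from retests: higher values go with stronger inhibition. The assay is labelled LdHisRS but filed under L. infantum. Of about 69,000 compounds tested this way, about 410 (0.6%) reached 50% or more in at least one test.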

SMILES,A,B
COc1cccc(C(=O)NS(=O)(=O)c2cc(Cl)sc2Cl)c1OC(F)F,0.9302,11.61
COc1ccc(OCc2cc(C(=O)N3CCSCC3)n[nH]2)c(Cl)c1,4.04,3.774
[H][C@@]12CS(=O)(=O)C[C@]1([H])N(Cc1nccn1C)CCN2CC1CC1,-7.326,-
NC(c1ccc(F)cc1)c1cccs1 (centres undefined),8.325,0
COCCN(C)C[C@H]1CC[C@@H](Cc2ccc3c(cnn3C)c2)O1,0,3.947
OCCOc1cc(F)ccc1NCc1ccc(F)c(F)c1,-8.038,33.73
Cc1cc(N2CCC3(CCCN(CCO)C3=O)C2)nc(C)c1C#N (centres undefined),0.04513,18.07
Cc1cc(NC(=O)CN2CCn3c(nnc3C(C)C)C2)on1,0.4632,6.612
Cc1ncsc1CCC(=O)NC1CCN(c2ccc(Cl)nn2)CC1,-20.19,12.5
COc1ccc(C2=NOC(C#N)C2)cc1 (centres undefined),6.682,8.642
CCNC(=O)NC(=O)CNC(C)(C)c1ccc2c(c1)OCCO2,-12.07,10.71
CS(=O)(=O)NC1CCN(C(=O)CCC2CCCO2)CC1 (centres undefined),-4.532,-2.74
CN1CCN(Cc2c(-c3ccco3)[nH]c3ncccc23)CC1,84.72,18.84
Clc1ccc(C2(NCc3noc(C4CC4)n3)CCC2)cc1,-4.618,-27.4
Cc1ccc(C(F)(F)F)cc1NC(=O)C1CCCN1 (centres undefined),-,19.57
Cc1noc(Cl)c1CCC(=O)N1CCCCC1Cn1cccn1 (centres undefined),-2.162,-37.14
O=C(C1CC1)N1CCC[C@]2(C[C@@H](OCc3ccncc3)CO2)C1.O=C(O)C(F)(F)F,1.108,-
NC(=O)C1(c2cnccn2)CCCN1Cc1cccc(Cl)c1 (centres undefined),-16.74,16.49
Cc1ccc2ncn(CC(O)CN3CCC(C)CC3)c(=O)c2c1 (centres undefined),7.439,14.58
Cc1cc(C)c2nc(CN3C[C@H](CCO)[C@@H](N)C3)cc(O)c2c1,1.274,16.67
Cc1cc(NC(=O)C2CCN(c3ncccc3C#N)CC2)no1,-5.393,17.62
[H][C@@]12CN(S(=O)(=O)N(C)C)C[C@]1([H])N(Cc1ccccc1OC)C(=O)O2,2.551,-
CCCN1CCC(c2nc3ccc(NCc4ccccc4)cn3n2)CC1,-,14
Cc1ccc(CNC(=O)NC2CCN(CC(F)F)CC2)cc1,-5.159,16.39
COc1ccc(OCCNC(=O)CN(C)Cc2nnc(C)n2C)cc1,8.285,0
CN1CCN([C@@H]2CCN(C3CCOCC3)[C@H]2Cc2cnn(C)c2)CC1,-,5.263
CN(C)c1ccc(C2CC(=O)Nc3c2cnn3Cc2ccco2)cc1 (centres undefined),13.07,22.83
CCc1cc(N2C[C@H](C3CC3)[C@@H](N)C2)nc(N2CCCC2)n1,-7.55,6
O=C(O)C(F)(F)F.[H][C@@]12C[C@H](C(=O)N3CCCO3)CN(Cc3ccco3)[C@]1([H])CCO2,-3.079,-
[H][C@@]12CCN(S(C)(=O)=O)[C@]1([H])CC[C@@H](C(=O)NCc1cccnc1)O2,-6.085,-
Cc1nc2c(N3CCC(O)(Cn4ccnc4)CC3)ncnc2o1,-2.3,10.45
CN1CC2(CCN(C(=O)c3cn4cccnc4n3)CC2)CC1=O,7.224,22.89
C=C(C)COc1cccc(C(=O)N2CCC3(CCOCC3)CC2)c1,2.552,-2.564
Cc1ccc(Cl)cc1N1CCN(CC(=O)NC(C)c2ccco2)CC1 (centres undefined),14.12,12.39
Cn1cncc1-c1nnc([C@H]2CCN(Cc3cccnc3)C2)o1,-5.825,16.22
CCOC(=O)c1cc2c(=O)[nH]c(=O)n(CCc3ccccc3)c2nc1C,5.207,2.128
CC(C)c1nnc2n1CCN(Cc1cc(Cl)c3c(c1)OCCO3)C2,9.441,8.333
CC(Cn1cccn1)NC(=O)NCCc1cnn(C)c1 (centres undefined),-,3.371
Cc1nc(C)n(CC2CCCN2CCCc2nc3ccccc3o2)n1 (centres undefined),-20.67,17.86
COc1ccc(C2CCCN2C(=O)NCCn2ccnc2)cc1 (centres undefined),-9.233,6.481
c1ccc2sc(CN3CCOC(Cn4cccn4)C3)nc2c1 (centres undefined),-0.2872,-2.381
[H][C@]12CCN(C(N)=O)[C@@]1([H])CC[C@H](COCc1csc(C)n1)O2,-5.428,-
CC(C)(C)c1csc(C2CCCCN2C(=O)CCn2cncn2)n1 (centres undefined),3.786,11.67
COc1cc(C)nc(N2CCN(C(=O)c3ccoc3C)CC2)n1,3.738,-50

Repeated from the top, 5 entries:

{"smiles": "COc1cccc(C(=O)NS(=O)(=O)c2cc(Cl)sc2Cl)c1OC(F)F", "A": 0.9302, "B": 11.61}
{"smiles": "COc1ccc(OCc2cc(C(=O)N3CCSCC3)n[nH]2)c(Cl)c1", "A": 4.04, "B": 3.774}
{"smiles": "[H][C@@]12CS(=O)(=O)C[C@]1([H])N(Cc1nccn1C)CCN2CC1CC1", "A": -7.326}
{"smiles": "NC(c1ccc(F)cc1)c1cccs1", "stereo": "centres undefined", "A": 8.325, "B": 0}
{"smiles": "COCCN(C)C[C@H]1CC[C@@H](Cc2ccc3c(cnn3C)c2)O1", "A": 0, "B": 3.947}

The values are deposited in ChEMBL (CHEMBL3988442, “University of Dundee, Small-Polar-MMV Screening Library” (2021)).